Values of other authors, collected in patent US9005898B2, “Method for controlling hair growth, method for selecting or evaluating hair growth control agent, and hair growth suppression agent” (Kao Corporation, priority 2010, dated 2015).
At least one structure is not confirmed: it was looked up by name or label, or the drawing left a doubt.

Tested on: human hair follicle
Conditions: in a dose-dependent manner; Patent Document 7

Compound: COC1=C2C[C@@H](C)C[C@H](OC)[C@H](O)[C@@H](C)/C=C(\C)[C@H](OC(N)=O)[C@@H](OC)/C=C\C=C(/C)C(=O)NC(=CC1=O)C2=O [geldanamycin]
- growth of the human hair follicle: reduced
